Test results published in US11324746B2, “Use of anagrelide for treating cancer” (Arovella Therapeutics Limited, priority 2014, dated 2022).

Assay: Plasma levels of anagrelide and metabolite after clinical oral dose
Type: in vivo, human
Conditions: 1 mg clinical dose

SMILES | peak plasma level as share of in vitro PDEIII inhibitory IC50 [%] | peak plasma level relative to in vitro PDE III inhibitory IC50 [fold]
O=C1CN2Cc3c(ccc(Cl)c3Cl)N=C2N1 [anagrelide] | 50 | 
O=C1NC2=Nc3ccc(Cl)c(Cl)c3CN2C1O (centres unmarked) [3-hydroxy anagrelide] |  | ~40
